# Laboratory results: PubChem BioAssay AID1159584 (Peter MacCallum Cancer Centre, 2016)
# Screen: 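Genes that CDH1-null MCF10A cells selectively depend on to survive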 (primary screen)
# Cell system: human MCF10A breast epithelial cells, parental and CDH1-null
# Knock-down reagent: siRNA against human genes
# Measured: 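ATP luminescence (CellTiter-Glo) viability per line relative to mean mock wells over all plates, and the ratio of CDH1-null to parental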
# Direction: CDH1-null / parental viability ratio: higher = CDH1-null cells survive relatively better than parental
# The deposit covers about 18,000 reagents; below is a random part of them. Not all columns of the deposit are shown. Not stated in the record: the amount of reagent, the time to read-out.
Gene,CDH1-null / parental viability ratio
PSTPIP1 (proline-serine-threonine phosphatase interacting protein 1),1.02
PEX10 (peroxisomal biogenesis factor 10),0.89
TAF11 (TATA-box binding protein associated factor 11),1.31
USP6 (ubiquitin specific peptidase 6),1.17
SYNE3 (spectrin repeat containing nuclear envelope family member 3),0.8
ALMS1 (ALMS1 centrosome and basal body associated protein),1.09
GTF2A2 (general transcription factor IIA subunit 2),0.94
PBK (PDZ binding kinase),1.11
PMCH (pro-melanin concentrating hormone),0.67
CARF (calcium responsive transcription factor),0.91
C6orf120 (chromosome 6 open reading frame 120),0.92
GDF3 (growth differentiation factor 3),1.05
FUT8 (fucosyltransferase 8),1.09
SOX5 (SRY-box transcription factor 5),1.75
LAPTM4A (lysosomal protein transmembrane 4 alpha),1.14
NKTR (natural killer cell triggering receptor),1.07
MBD3L2 (methyl-CpG binding domain protein 3 like 2),1.12
SDHAF2 (succinate dehydrogenase complex assembly factor 2),0.84
"IRAG1 (inositol 1,4,5-triphosphate receptor associated 1)",1.04
SLC25A31,1.09
TSPO (translocator protein),1.38
NUP50 (nucleoporin 50),0.79
PRR34 (PRR34 long non-coding RNA),0.76
NKRF (NFKB repressing factor),0.9
DNAAF3 (dynein axonemal assembly factor 3),1.23
ZNF354C (zinc finger protein 354C),0.71
ELOA2 (elongin A2),1.16
OR14I1 (olfactory receptor family 14 subfamily I member 1),1.06
ZBED8L (ZBED8 like),0.94
CCDC34 (coiled-coil domain containing 34),0.91
THAP2 (THAP domain containing 2),1.06
CTNND2 (catenin delta 2),1.12
IL12RB1 (interleukin 12 receptor subunit beta 1),0.91
SDCBP2 (syndecan binding protein 2),1.38
LRBA (LPS responsive beige-like anchor protein),1.01
MIOX (myo-inositol oxygenase),1.38
ACTR3 (actin related protein 3),1.07
NME1-NME2 (NME1-NME2 readthrough),1.5
NAGS (N-acetylglutamate synthase),1.26
PHETA2 (PH domain containing endocytic trafficking adaptor 2),1.29
MOCS3 (molybdenum cofactor synthesis 3),1.16
HMMR (hyaluronan mediated motility receptor),1.21
VEGFC (vascular endothelial growth factor C),1.01
USP17L9P,0.75
TOP3B (DNA topoisomerase III beta),1.05
DIS3L2 (DIS3 like 3'-5' exoribonuclease 2),1.14
